# Primary screen of a compound library

Sequences of proteins named here, by UniProt entry; tags and fusion partners are left off. Residues count along the entry.
UniProt Q4DA54, 1-478: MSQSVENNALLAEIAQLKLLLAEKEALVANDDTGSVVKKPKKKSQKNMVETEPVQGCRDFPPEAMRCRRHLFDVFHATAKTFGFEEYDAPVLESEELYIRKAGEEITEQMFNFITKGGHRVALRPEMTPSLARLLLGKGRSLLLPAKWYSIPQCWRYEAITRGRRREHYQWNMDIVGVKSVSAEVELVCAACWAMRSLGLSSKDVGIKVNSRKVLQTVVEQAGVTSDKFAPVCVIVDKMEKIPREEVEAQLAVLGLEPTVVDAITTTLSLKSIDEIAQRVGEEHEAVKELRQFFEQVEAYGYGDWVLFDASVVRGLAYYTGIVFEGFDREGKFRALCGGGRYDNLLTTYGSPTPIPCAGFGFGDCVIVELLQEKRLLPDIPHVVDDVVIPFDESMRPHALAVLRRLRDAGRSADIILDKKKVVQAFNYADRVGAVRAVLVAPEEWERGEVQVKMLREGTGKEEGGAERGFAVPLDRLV

From ChEMBL document CHEMBL3988442, “University of Dundee, Small-Polar-MMV Screening Library” (2021).

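Histidine-tRNA ligase, Trypanosoma cruzi CL Brener (UniProt Q4DA54). Enzyme assay of histidyl-tRNA synthetase; the read-out is not stated. Compounds at 30 µM. Higher reads as stronger inhibition (inferred: compounds with an IC50 in retests scored well above the rest). Of about 69,000 compounds tested this way, about 31 (0.045%) reached 50% or more in at least one test.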

Values are the deposited “Percent Effect”, in %. How 0% and 100% were set is not recorded. Most values in the screen are low, and negative values occur. This is an unselected part of the compounds tested.

{"compound": "N[C@H]1CN(C(=O)c2ccc3[nH]c(=O)c(=O)[nH]c3c2)C[C@@H]1c1ccccc1", "percent effect": 3.483}
{"compound": "c1snnc1CN1C[C@H]2CCC[C@@H](CN3CCOCC3)[C@H]2C1", "percent effect": 6.522}
{"compound": "Cn1ccc(C(=O)N2CCCC2c2ccc3c(c2)OCCO3)cc1=O", "stereo": "centres undefined", "percent effect": 4.348}
{"compound": "Cc1cc2c(cc1C)C(NCc1nnc3n1CCCCC3)CCCO2", "stereo": "centres undefined", "percent effect": -1.695}
{"compound": "CC(=O)NCc1ccc(C(=O)N2CCCC2c2c(C)nn(C)c2C)o1", "stereo": "centres undefined", "percent effect": 8.571}
{"compound": "CC(C)=CCS(=O)(=O)Cc1nc(C(C)C)no1", "percent effect": 1.734}
{"compound": "O=C(c1cnccn1)N1CCN2C[C@H](OCC3CC3)C[C@H]2C1", "percent effect": -1.98}
{"compound": "CN(Cc1cnn(C)c1)Cc1nc(CCc2ccccc2)no1", "percent effect": 1.163}
{"compound": "CC(c1cccnc1)N1CCN(CCc2ccccn2)CC1", "stereo": "centres undefined", "percent effect": 4.938}
{"compound": "c1cn(Cc2nnc(C3CCN(C4CCNCC4)CC3)n2C2CC2)cn1", "percent effect": 11.36}
{"compound": "O=C1CN(CC2CC2)Cc2nc(NCc3ccccc3)sc21", "percent effect": 18.08}
{"compound": "CN1CCC(C(=O)N2CCC(=Cc3cccc(F)c3)CC2)CC1=O", "stereo": "centres undefined", "percent effect": 1.205}
{"compound": "CCC(=O)N1CCN(c2cc(-n3cnc(C)c3C)nc(C)n2)CC1", "percent effect": -2.041}
{"compound": "Cn1ccc(NC(=O)CN2CCC(Oc3cnccn3)CC2)n1", "percent effect": 1.538}
{"compound": "Cc1nccn1-c1cc(CNC(=O)N2CCSCC2)ccn1", "percent effect": 6.186}
{"compound": "NC(=O)N1CCc2ncc(CNC(=O)CC3CC3)n2CC1", "percent effect": 2.21}
{"compound": "COCCN1CCN(CCCc2nnnn2-c2ccccc2)CC1", "percent effect": 2.618}

The last 2 entries again:

{"compound": "NC(=O)N1CCc2ncc(CNC(=O)CC3CC3)n2CC1", "percent effect": 2.21}
{"compound": "COCCN1CCN(CCCc2nnnn2-c2ccccc2)CC1", "percent effect": 2.618}